Values of other authors in US10739353B2, “Suppression of cytokine release and cytokine storm” (SignPath Pharma Inc., priority 2014, dated 2020).
At least one compound was matched to its structure with a doubt left.

Conditions: after ischemic stroke (Yrjanheikki); cited from earlier work

Structure (SMILES)	IL-1β converting enzyme mRNA induction and neuronal death
C[C@H]1c2cccc(O)c2C(=O)C2=C(O)[C@]3(O)C(=O)C(C(N)=O)=C(O)[C@@H](N(C)C)[C@@H]3[C@@H](O)[C@@H]21 [doxycycline]	reduce mRNA induction of IL-1β converting enzyme and protect against neuronal death
CN(C)c1ccc(O)c2c1C[C@H]1C[C@H]3[C@H](N(C)C)C(O)=C(C(N)=O)C(=O)[C@@]3(O)C(O)=C1C2=O [minocycline, reference compound]	reduce mRNA induction of IL-1β converting enzyme and protect against neuronal death
